Measured values published in patent US20210214410A1 (Stanford University, published 2021).
No constants are given. Whether binding was seen depends on the method and setting. Some entries that bind do so weakly or less than the wild type.

Target: T1, human interleukin 13 receptor alpha 2 (IL-13Rα2), biotinylated (human) (UniProt Q14627)
T1 sequence (biotinylated (site not stated), looked up): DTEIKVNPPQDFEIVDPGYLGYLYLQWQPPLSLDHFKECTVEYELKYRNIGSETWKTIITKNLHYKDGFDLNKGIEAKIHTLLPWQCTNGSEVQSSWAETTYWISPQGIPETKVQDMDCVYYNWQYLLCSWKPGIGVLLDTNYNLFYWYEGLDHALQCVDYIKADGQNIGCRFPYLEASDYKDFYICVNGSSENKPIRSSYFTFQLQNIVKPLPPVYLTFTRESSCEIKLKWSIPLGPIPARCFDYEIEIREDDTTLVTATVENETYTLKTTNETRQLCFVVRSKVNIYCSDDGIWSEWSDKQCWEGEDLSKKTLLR
Assay: told in words; SPR on captured biotinylated receptor (FIG. 2)

B1: IL-13 variant D7 (IL-13Rα2-selective IL-13 superkine; L10A, V18F, R86K, D87K, K89R, L101I, K104R, R108K) (ligand)
chain: PGPVPPSTAARELIEELFNITQNQKAPLCNGSMVWSINLTAGMYCAALESLINVSGCSAIEKTKRMLSGFCPHKVSAGQFPSLHVKKTRIEVAQFVKDLLIHLRKLFKEGQFNHHHHHH
notes: the first is used here; also called polypeptide D7
binding: binds
